Assay results: PubChem BioAssay AID504444 (National Center for Advancing Translational Sciences (NCATS), 2011)
The whole screen tested about 360,000 compounds, of which about 7,500 (2.1%) were called active. The shares of active, inactive and inconclusive entries below differ from those in the screen. Calls come from the whole dose curve; as a rule, active = well fitted inhibition curve with a large enough effect; inconclusive = small, poorly fitted or top-dose-only effect, or effect the other way; inactive = flat fitted curve, though single readings scatter. Potencies beside an inconclusive call are fits to weak or partial responses and may not hold up.

assay: Nrf2 qHTS screen for inhibitors; conditions: A549 ARE-Fluc reporter, luciferase luminescence, 18-24 h; activity change, negative = inhibition: at 46 µM (top of the series); note: nearly all actives have a fitted effect of over 60% in size
In short: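 A549 ARE_Fluc cells, 5000/well, 5% FBS OPTI-MEM; compounds in dose-response, 18-24 h at 37 °C/5% CO2; CellTiter-Fluor viability read (Ex 405/Em 525), then BugLite luciferase luminescence = Nrf2 activity.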
% is set by controls: 0 for no effect and ±100 for the full control effect; potency is the fitted concentration of half-maximal effect.

| SMILES | activity change, negative = inhibition | Potency |
| --- | --- | --- |
| CC(/C=N/NC(=O)Cc1cccn1C)=C\c1ccccc1 | inactive: 26.6% |  |
| CCOC(=O)c1ccc2c(c1)nc(SCC(=O)N1CCOCC1)n2CC |  | inconclusive: 29.1 µM [falling, single point] |
| CSc1nnc([C@H](C)NC(=O)OC(C)(C)C)o1 |  | inconclusive: 0.13 µM [falling, full curve, poor fit] |
| COc1ccc(CCNC(=O)CN2CCN(c3cccc(Cl)c3)CC2)cc1OC |  | inconclusive: 29.1 µM [falling, single point] |
| CCNc1ccc(C(=O)OCC(=O)c2cc(C)n(Cc3ccc4c(c3)OCO4)c2C)cc1[N+](=O)[O-] |  | inconclusive: 11.6 µM [falling, partial curve, poor fit] |
| O=C(O)c1cc(N/N=C/c2ccc3c(c2)OCO3)ccc1Cl |  | inconclusive: 6.51 µM [activator, partial curve] |
| O=C(N/N=C/c1ccccn1)c1cc(C2CC2)nc2ccccc12 |  | inconclusive: 29.1 µM [falling, single point] |
| CCc1nonc1NC(=O)COc1cc(C)c(Cl)c(C)c1 | inactive: 6.16% |  |
| Cc1ccc2nc(NC(=O)c3cc(-c4ccco4)nc4ccccc34)sc2c1 |  | active: 23.1 µM |
| Cc1ccc(NC2=Nc3ccccc3CC2)cc1 |  | inconclusive: 0.82 µM [activator, partial curve, poor fit] |
| COc1ccc(CN2C(=O)c3cccnc3C2O)cc1 (stereo not drawn) |  | inconclusive: 29.1 µM [activator, single point] |
| CCCCNC(=O)N1CCN(C(c2ccccc2)c2ccccc2)CC1 | inactive: -5.95% |  |
| COc1ccc(C2=NOC(C(=O)NCc3cccs3)C2)cc1OC (stereo not drawn) |  | inconclusive: 0.184 µM [falling, full curve] |
| COc1ccc(Cl)cc1NC(=O)CSc1nc(Nc2ccccc2)nc(N2CCOCC2)n1 |  | inconclusive: 18.4 µM [falling, single point] |
| COc1ccc(/C=C/c2nnc(NC(C)=O)s2)cc1 |  | inconclusive: 23.1 µM [activator, single point] |
| CCCNC(=O)COc1ccc(-c2nn(C)c(=O)c3ccccc23)cc1 |  | inconclusive: 29.1 µM [falling, single point] |
| CCN1CCN(Cc2ccccc2NC(=O)Nc2ccc(C)cc2)CC1 |  | inconclusive: 5.8 µM [activator, full curve] |
| Cc1ccc(Cl)cc1NC(=S)N(CCN(C)C)C(C)c1ccccn1 (stereo not drawn) |  | inconclusive: 29.1 µM [falling, single point] |
| Cc1ccnc(NC(=O)c2cc3cc(F)ccc3s2)c1 |  | inconclusive: 3.26 µM [activator, full curve] |
| CC(=O)c1c(C)oc2c1cc(NS(=O)(=O)c1ccc(C(C)(C)C)cc1)c1ccccc12 |  | inconclusive: 29.1 µM [falling, single point] |
| Cc1cc(C)nc(SCc2nc3nc(C)cc(C)n3c2Br)n1 |  | inconclusive: 2.31 µM [falling, partial curve, poor fit] |
| O=C(CSc1ncnc2scc(-c3ccccc3)c12)N1CCN(Cc2ccc3c(c2)OCO3)CC1 |  | inconclusive: 29.1 µM [falling, single point] |
| Cc1ccc(CNC(=O)C(C)n2nc(C)c3sc4ccccc4c3c2=O)cc1 (stereo not drawn) |  | inconclusive: 29.1 µM [activator, single point] |

Structures listed so far containing a furan ring, fused or not, in the order listed:

| SMILES | activity change, negative = inhibition | Potency |
| --- | --- | --- |
| Cc1ccc2nc(NC(=O)c3cc(-c4ccco4)nc4ccccc34)sc2c1 |  | active: 23.1 µM |
| CC(=O)c1c(C)oc2c1cc(NS(=O)(=O)c1ccc(C(C)(C)C)cc1)c1ccccc12 |  | inconclusive: 29.1 µM [falling, single point] |

(further entries)

| SMILES | activity change, negative = inhibition | Potency |
| --- | --- | --- |
| Cc1cc(C)c(NC(=O)Cn2c(=O)n(Cc3ccc(C(=O)NCc4ccc5c(c4)OCO5)cc3)c(=O)c3ccccc32)c(C)c1 |  | active: 14.6 µM |
| CN(Cc1ccccc1)C(=O)c1ccccc1C(=O)OCC(=O)N(Cc1ccccc1)C(C)(C)C |  | inconclusive: 29.1 µM [falling, single point] |
| CCOc1ccc(Oc2ccccc2NS(=O)(=O)c2ccc(CCC(=O)O)cc2)cc1 |  | active: 10.3 µM |
| CCOC(=O)c1[nH]c(Cc2[nH]c(C(=O)OCC)c(C)c2CCC(=O)OC)c(CCC(=O)OC)c1C |  | inconclusive: 18.4 µM [falling, single point] |
| CCOc1ccc2nc(SCc3cccc(C)c3)nc(C)c2c1 |  | inconclusive: 2.06 µM [activator, full curve, poor fit] |
| CC1CCCCN1c1nnc(NC(=O)c2cc(-c3ccc(Br)cc3)on2)s1 (stereo not drawn) |  | inconclusive: 29.1 µM [falling, single point] |
| CCCN(CCC)CC(O)CN(c1ccccc1)S(=O)(=O)c1ccc(C)cc1 (stereo not drawn) | inactive: -4.85% |  |
| Nc1nn(-c2ccccc2)c(N)c1N=Nc1ccc2c(c1)OCO2 | inactive: -10.3% |  |
| COc1ccc(N=C(C)C2=C(O)CSC2=O)cc1 |  | inconclusive: 1.84 µM [activator, full curve, poor fit] |
| CC1CCCN(c2nc3c(c(=O)n(C)c(=O)n3C)n2Cc2ccccc2)C1 (stereo not drawn) |  | inconclusive: 46.1 µM [falling, single point] |
| CCN(CC)c1ccc(/C=N/NC(=O)c2cccc(S(=O)(=O)N3CCOCC3)c2)c(O)c1 |  | inconclusive: 16.4 µM [falling, single point] |
| O=C(Nc1cccc(-c2nnc(-c3ccco3)o2)c1)c1ccccc1 |  | inconclusive: 6.51 µM [falling, full curve, poor fit] |
| Nc1c(S(=O)(=O)c2ccccc2)c2nc3ccccc3nc2n1/N=C/c1ccco1 |  | active: 5.8 µM |
| CCOc1ccc(NC(=O)c2cc(C)nc3c2c(C)nn3-c2ccc(C)cc2)cc1 |  | inconclusive: 18.4 µM [activator, partial curve] |
| Nc1nc(Nc2ccccc2)nc(NCc2ccco2)c1[N+](=O)[O-] | inactive: -12.1% |  |
| CCn1c(O)c(C=NC2CCCC(C)C2C)sc1=S (stereo not drawn) |  | inconclusive: 32.6 µM [falling, single point] |
| O=C(Nc1cccc2ccccc12)c1cnccn1 |  | inconclusive: 23.1 µM [activator, partial curve] |
| CCOC(=O)C1=CN(Cc2ccc(OC)cc2)C=C(C(=O)OCC)C1c1cccs1 |  | inconclusive: 1.64 µM [falling, partial curve, poor fit] |
| CC(=O)N(C(C)=O)c1ncc2c([nH]c3ccccc32)c1C#N |  | active: 8.2 µM |
| CCc1occc(=O)c1Oc1cc(NN2CCCCC2)c([N+](=O)[O-])cc1[N+](=O)[O-] |  | inconclusive: 29.1 µM [falling, single point] |
| COC(=O)c1cccc(NC(=O)c2cccnc2)c1 | inactive: -11.2% |  |
| COC(=O)c1ccccc1NC(=O)CN1C(=O)COc2ccc(Cl)cc21 | inactive: -13.2% |  |
| CSc1ncccc1C(=O)Nc1nc2ccc(Oc3ccccc3)cc2s1 |  | active: 10.3 µM |

| SMILES | activity change, negative = inhibition | Potency |
| --- | --- | --- |
| COC(=O)c1ccc(C(=O)N2CCCC(CNC(=O)c3ccccc3Cl)C2)cc1 (stereo not drawn) |  | inconclusive: 16.4 µM [activator, partial curve, poor fit] |
| Clc1ncnc2c1oc1ccccc12 |  | inconclusive: 20.6 µM [activator, partial curve, poor fit] |
| Cc1ccc(S(=O)(=O)c2c(O)c3ccc(C(=O)O)cc3[nH]c2=O)cc1 | inactive: 2.1% |  |
| COc1ccccc1CC(=O)OC(C)C(=O)Nc1ccc(S(=O)(=O)N2CCCCC2)cc1 (stereo not drawn) |  | inconclusive: 16.4 µM [falling, partial curve, poor fit] |
| O=C(Nc1nc2ccsc2c(=O)s1)c1ccc(Cl)cc1 |  | inconclusive: 0.146 µM [activator, full curve, poor fit] |
| Cc1cc(=O)[nH]c(SCC(=O)C23CC4CC(CC(C4)C2)C3)c1C#N |  | inconclusive: 29.1 µM [falling, single point] |
| CCCCc1nnc(NC(=O)c2cccc(S(=O)(=O)N3CCN(C)CC3)c2)s1 |  | inconclusive: 20.6 µM [falling, single point] |
| O=S(=O)(c1ccccc1)c1nc(NCc2ccccc2)sc1Cl |  | inconclusive: 16.4 µM [falling, single point] |
| COc1cc(-c2ccc3sc(-c4ccsc4)c(C#CCO)c3c2)cc(OC)c1OC |  | inconclusive: 16.4 µM [falling, single point] |
| O=C(OCc1nc2ccccc2s1)c1ccco1 |  | inconclusive: 7.31 µM [activator, single point] |
| COc1ccc(C(C(=O)Nc2ccc(F)cc2)N(C(=O)Cn2nnc3ccccc32)C2CC2)cc1 (stereo not drawn) |  | inconclusive: 25.9 µM [falling, single point] |
| COc1ccccc1C(=O)Nc1ccc(OCc2nnc3c4ccccc4c(C)nn23)cc1 |  | active: 9.2 µM |
| COc1ccccc1CNC(=O)c1c(N)n(CCCN2CCOCC2)c2nc3ccccc3nc12 |  | active: 18.4 µM |
| O=C(COc1cc2oc(=O)c3c(c2cc1Cl)CCC3)NCc1ccccn1 | inactive: 3.67% |  |
| O=C(c1ccc2c(=O)n3c(nc2c1)CCCCC3)N1CCN(c2ccc([N+](=O)[O-])cc2)CC1 |  | active: 23.1 µM |
| CCn1c(C)nc2cc(S(=O)(=O)N3CCCCC3)ccc21 |  | inconclusive: 5.8 µM [falling, partial curve, poor fit] |
| CC(=O)N/N=C(\C)c1ccc2c(c1)OCCO2 |  | inconclusive: 18.4 µM [activator, single point] |
| O=C(N/N=C/C=C/c1ccco1)c1ccccc1Cl | inactive: 13.6% |  |
| O=C(NCCc1csc(-c2ccc(C(F)(F)F)cc2)n1)c1cccs1 |  | active: 25.9 µM |
| COc1ccccc1N1CCN(C(CNC(=O)C(=O)NCc2cccnc2)c2cccnc2)CC1 (stereo not drawn) |  | inconclusive: 29.1 µM [falling, single point] |
| COc1ccc(-n2cnc3c(sc4nccc(N(C)C)c43)c2=O)cc1 | inactive: -15.4% |  |
| O=C1N=C2SCCN2/C1=C\c1ccc(Cl)cc1 |  | inconclusive: 29.1 µM [falling, single point] |

Grouped by structure: those above with a thiophene ring, fused or not.

| SMILES | activity change, negative = inhibition | Potency |
| --- | --- | --- |
| COc1ccc(C2=NOC(C(=O)NCc3cccs3)C2)cc1OC (stereo not drawn) |  | inconclusive: 0.184 µM [falling, full curve] |
| Cc1ccnc(NC(=O)c2cc3cc(F)ccc3s2)c1 |  | inconclusive: 3.26 µM [activator, full curve] |
| O=C(CSc1ncnc2scc(-c3ccccc3)c12)N1CCN(Cc2ccc3c(c2)OCO3)CC1 |  | inconclusive: 29.1 µM [falling, single point] |
| Cc1ccc(CNC(=O)C(C)n2nc(C)c3sc4ccccc4c3c2=O)cc1 (stereo not drawn) |  | inconclusive: 29.1 µM [activator, single point] |
| CCOC(=O)C1=CN(Cc2ccc(OC)cc2)C=C(C(=O)OCC)C1c1cccs1 |  | inconclusive: 1.64 µM [falling, partial curve, poor fit] |
| O=C(Nc1nc2ccsc2c(=O)s1)c1ccc(Cl)cc1 |  | inconclusive: 0.146 µM [activator, full curve, poor fit] |
| COc1cc(-c2ccc3sc(-c4ccsc4)c(C#CCO)c3c2)cc(OC)c1OC |  | inconclusive: 16.4 µM [falling, single point] |
| O=C(NCCc1csc(-c2ccc(C(F)(F)F)cc2)n1)c1cccs1 |  | active: 25.9 µM |
| COc1ccc(-n2cnc3c(sc4nccc(N(C)C)c43)c2=O)cc1 | inactive: -15.4% |  |
